From publication PMC6965642, “The novel missense mutation Met48Lys in FKBP22 changes its structure and functions” (Scientific Reports, 2020)
Results are given in words; binding and its absence hold for the method and conditions named. Some entries that bind do so weakly or less than the wild type.

The chains behind the UniProt entries cited, without tags or fusion partners. Residues count along the entry.
UniProt P04258: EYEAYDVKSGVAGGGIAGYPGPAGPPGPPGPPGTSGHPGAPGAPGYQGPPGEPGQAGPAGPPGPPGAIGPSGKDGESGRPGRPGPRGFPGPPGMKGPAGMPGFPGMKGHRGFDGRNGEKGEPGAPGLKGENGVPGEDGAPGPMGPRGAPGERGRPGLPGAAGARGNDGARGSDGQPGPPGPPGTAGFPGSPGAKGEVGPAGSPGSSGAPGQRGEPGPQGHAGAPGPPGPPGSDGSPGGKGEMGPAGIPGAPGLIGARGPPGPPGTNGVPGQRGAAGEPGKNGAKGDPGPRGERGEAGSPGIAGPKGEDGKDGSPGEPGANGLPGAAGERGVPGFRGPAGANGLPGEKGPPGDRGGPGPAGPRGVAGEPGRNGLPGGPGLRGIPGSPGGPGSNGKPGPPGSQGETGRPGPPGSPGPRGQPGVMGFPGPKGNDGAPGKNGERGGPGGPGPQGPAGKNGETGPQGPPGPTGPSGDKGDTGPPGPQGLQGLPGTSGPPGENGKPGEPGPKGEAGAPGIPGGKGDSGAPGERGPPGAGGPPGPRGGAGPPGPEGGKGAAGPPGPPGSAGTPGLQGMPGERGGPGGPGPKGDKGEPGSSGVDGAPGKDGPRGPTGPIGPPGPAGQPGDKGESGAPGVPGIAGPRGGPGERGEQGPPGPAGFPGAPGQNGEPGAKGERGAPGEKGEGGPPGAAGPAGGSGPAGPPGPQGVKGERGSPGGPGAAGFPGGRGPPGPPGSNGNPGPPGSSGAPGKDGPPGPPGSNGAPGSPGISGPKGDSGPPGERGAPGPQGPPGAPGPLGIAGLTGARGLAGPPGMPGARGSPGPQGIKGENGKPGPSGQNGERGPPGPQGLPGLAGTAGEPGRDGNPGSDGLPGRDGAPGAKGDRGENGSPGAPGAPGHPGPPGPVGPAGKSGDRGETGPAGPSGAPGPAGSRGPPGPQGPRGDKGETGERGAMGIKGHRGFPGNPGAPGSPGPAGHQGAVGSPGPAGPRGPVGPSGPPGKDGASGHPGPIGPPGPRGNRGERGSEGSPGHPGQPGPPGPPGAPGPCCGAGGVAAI
UniProt Q03692, residues 19-680: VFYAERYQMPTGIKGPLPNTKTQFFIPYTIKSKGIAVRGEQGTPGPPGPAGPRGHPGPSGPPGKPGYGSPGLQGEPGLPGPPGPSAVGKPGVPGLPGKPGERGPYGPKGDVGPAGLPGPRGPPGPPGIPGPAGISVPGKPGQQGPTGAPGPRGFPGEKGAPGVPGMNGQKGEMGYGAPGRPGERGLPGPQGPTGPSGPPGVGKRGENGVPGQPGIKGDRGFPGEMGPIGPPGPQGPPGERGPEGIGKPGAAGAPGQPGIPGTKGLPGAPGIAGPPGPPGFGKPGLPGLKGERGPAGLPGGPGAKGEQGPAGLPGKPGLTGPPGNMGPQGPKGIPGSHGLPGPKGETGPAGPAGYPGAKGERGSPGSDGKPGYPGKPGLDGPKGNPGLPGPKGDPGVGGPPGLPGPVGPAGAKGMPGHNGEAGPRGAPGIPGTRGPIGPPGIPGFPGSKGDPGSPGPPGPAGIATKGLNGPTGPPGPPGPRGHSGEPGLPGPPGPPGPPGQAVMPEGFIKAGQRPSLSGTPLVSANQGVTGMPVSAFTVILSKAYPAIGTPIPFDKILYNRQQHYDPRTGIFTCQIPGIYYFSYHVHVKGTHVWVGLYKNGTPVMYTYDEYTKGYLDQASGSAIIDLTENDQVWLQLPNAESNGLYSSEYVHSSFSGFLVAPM

Legend:
[1] = molecular target: bovine type III collagen (bovine) (UniProt P04258); assay: SPR; BIAcore X; collagens immobilised on CM5 chips by amide coupling, FKBP22 injected; 20 °C; HBS-P (10 mM Hepes pH 7.4, 150 mM NaCl, 0.005% Surfactant P20) with 1 mM CaCl2; flow 10 µL/min; steady-state affinity model for type IV collagen - WT FKBP22, Langmuir-binding model for type X collagen - M48K FKBP22; both purified
[2] = molecular target: T1, human recombinant type X collagen (human, UniProt Q03692 19-680); assay: as above
T1 construct: type X collagen, human, recombinant; source: 293 cells, purified as described previously

| binding [1] | binding [2] | Binder |
| --- | --- | --- |
| binds | – | recombinant human M48K FKBP22 (Met48Lys) (enzyme, The mutation was found in a patient with kEDS; PDB 4MSP is the WT structure (parent); also called mutant FKBP22; source: E. coli BL21 (DE3), solubilised with 2 M urea, purified (Co2+-chelating column, enterokinase cleavage, Phenyl column)) LIPEPEVKIEVLQKPFICHRKTKGGDLKLVHYEGYLEKDGSLFHSTHKHNNGQPIWFTLGILEALKGWDQGLKGMCVGEKRKLIIPPALGYGKEGKGKIPPESTLIFNIDLLEIRNGPRSHESFQEMDLNDDWKLSKDEVKAYLKKEFEKHGAVVNESHHDALVEDIFDKEDEDKDGFISAREFTYKHDEL |
| binds | binds | recombinant human wild type FKBP22 (FK506 Binding Protein 22 kDa) (enzyme, UniProt Q9NWM8 21-211) LIPEPEVKIEVLQKPFICHRKTKGGDLMLVHYEGYLEKDGSLFHSTHKHNNGQPIWFTLGILEALKGWDQGLKGMCVGEKRKLIIPPALGYGKEGKGKIPPESTLIFNIDLLEIRNGPRSHESFQEMDLNDDWKLSKDEVKAYLKKEFEKHGAVVNESHHDALVEDIFDKEDEDKDGFISAREFTYKHDEL |
